Assay results taken from article PMC5385568.
No constants are given. Whether binding was seen depends on the method and setting. In cells and extracts the contact can be indirect. Binding calls can cover weak binding; strength is not graded here.

Chains of the proteins cited; added tags and fusions are not shown. Lines headed by an entry give the natural chain unless they say otherwise; changes in a name come on top.
UniProt P28023: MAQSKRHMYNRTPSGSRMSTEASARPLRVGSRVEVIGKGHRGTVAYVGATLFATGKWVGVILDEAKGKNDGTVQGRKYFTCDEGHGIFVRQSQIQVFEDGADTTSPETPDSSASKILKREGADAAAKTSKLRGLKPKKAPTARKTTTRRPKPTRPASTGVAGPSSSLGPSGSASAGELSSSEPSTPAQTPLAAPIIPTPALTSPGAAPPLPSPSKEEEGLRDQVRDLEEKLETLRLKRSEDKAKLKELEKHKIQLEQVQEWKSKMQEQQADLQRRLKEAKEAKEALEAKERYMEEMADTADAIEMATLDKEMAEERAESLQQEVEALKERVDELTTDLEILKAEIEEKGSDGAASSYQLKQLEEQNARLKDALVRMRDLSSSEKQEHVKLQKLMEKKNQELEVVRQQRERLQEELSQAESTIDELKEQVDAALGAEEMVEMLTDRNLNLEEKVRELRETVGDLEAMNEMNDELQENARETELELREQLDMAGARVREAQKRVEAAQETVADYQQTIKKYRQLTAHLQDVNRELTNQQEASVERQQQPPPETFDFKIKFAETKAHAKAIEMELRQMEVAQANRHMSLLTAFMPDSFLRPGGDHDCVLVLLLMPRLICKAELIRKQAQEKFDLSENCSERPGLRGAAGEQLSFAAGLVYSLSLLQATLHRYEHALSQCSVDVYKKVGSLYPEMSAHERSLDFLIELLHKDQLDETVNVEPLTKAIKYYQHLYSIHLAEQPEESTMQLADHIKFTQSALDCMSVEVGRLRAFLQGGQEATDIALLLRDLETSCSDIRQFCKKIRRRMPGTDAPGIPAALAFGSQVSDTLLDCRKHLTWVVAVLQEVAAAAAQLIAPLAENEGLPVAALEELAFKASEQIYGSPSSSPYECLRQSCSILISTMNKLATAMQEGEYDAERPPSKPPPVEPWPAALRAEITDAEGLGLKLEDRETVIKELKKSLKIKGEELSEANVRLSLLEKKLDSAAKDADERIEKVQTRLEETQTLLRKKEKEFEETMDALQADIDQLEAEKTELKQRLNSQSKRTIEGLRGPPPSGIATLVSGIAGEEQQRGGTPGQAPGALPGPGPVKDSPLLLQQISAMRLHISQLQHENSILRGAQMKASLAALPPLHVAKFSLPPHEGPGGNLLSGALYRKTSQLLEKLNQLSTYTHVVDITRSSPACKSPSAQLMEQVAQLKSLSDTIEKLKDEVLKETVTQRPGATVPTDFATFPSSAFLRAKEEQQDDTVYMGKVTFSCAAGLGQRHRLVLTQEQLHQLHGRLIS
UniProt P63010: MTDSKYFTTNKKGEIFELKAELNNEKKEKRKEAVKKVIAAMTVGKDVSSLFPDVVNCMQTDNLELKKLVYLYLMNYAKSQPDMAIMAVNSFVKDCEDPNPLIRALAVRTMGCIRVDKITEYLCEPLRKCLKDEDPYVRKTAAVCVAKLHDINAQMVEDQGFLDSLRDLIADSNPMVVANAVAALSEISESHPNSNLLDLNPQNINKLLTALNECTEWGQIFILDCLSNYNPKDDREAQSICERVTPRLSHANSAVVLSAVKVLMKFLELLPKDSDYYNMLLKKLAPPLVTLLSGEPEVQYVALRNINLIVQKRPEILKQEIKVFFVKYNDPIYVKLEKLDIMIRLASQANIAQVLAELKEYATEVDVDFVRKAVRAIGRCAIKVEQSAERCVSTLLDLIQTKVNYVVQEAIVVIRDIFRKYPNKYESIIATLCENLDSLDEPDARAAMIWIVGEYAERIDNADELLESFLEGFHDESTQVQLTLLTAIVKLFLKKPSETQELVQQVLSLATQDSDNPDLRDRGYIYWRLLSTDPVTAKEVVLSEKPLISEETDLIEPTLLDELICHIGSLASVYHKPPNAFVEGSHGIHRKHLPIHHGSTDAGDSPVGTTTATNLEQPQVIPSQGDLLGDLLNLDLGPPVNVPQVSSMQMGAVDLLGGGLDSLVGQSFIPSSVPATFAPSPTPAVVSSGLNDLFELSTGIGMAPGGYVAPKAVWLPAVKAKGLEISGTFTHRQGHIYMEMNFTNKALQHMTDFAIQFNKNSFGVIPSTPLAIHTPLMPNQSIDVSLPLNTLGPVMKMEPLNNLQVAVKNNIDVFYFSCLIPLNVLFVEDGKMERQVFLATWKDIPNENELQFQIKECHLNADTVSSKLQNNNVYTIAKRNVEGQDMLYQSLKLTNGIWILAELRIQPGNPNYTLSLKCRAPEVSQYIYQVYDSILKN

Biological target: AviGFP-tagged p150^Glued (rat) (UniProt P28023)
Test: pull-down; biotinylated AviGFP-p150^Glued from HEK293T lysate held on M-280 streptavidin Dynabeads, washed with 500 mM KCl, then incubated with 0.2 mg/ml His6-AP-2β appendage domain in 20 mM HEPES pH 7.5, 300 mM KCl, 0.1% CHAPS, 2 h at 4 °C; immunoblotting; both purified

binding: binds
Substance: recombinant His6-AP-2β appendage domain (from UniProt P63010) (domain or fragment)
